Residue numbers refer to the chain shown, from its start. Results are given in words; binding and its absence hold for the method and conditions named. Some binding calls cover weakened binding; strength is not graded here.

Amino acid sequences for entries named in this document (tags omitted). A change or cut given only in a name is not applied to a line headed by its entry.
UniProt P47871: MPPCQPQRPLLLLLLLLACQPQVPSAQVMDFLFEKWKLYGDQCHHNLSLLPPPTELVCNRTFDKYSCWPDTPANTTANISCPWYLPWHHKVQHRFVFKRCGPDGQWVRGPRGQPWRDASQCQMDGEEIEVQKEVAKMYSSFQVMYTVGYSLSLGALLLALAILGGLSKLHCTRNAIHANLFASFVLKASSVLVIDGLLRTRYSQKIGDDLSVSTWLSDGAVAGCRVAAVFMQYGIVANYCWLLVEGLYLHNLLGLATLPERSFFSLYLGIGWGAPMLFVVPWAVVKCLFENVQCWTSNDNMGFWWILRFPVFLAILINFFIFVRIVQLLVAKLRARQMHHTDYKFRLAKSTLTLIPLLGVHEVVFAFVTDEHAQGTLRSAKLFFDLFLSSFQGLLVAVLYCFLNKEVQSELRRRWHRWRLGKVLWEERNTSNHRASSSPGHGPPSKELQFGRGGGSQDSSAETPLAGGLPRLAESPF

The target of the test is T1, soluble human GCGR extracellular domain (human, UniProt P47871 26-136, limits assumed).
T1 construct: also called soluble GCGR
As to the kind of experiment: Octet, antibody immobilized on biosensor tip, 500 nM soluble human GCGR extracellular domain. (In general: In BLI a coated tip is dipped into the sample, and binding shifts an interference pattern.)

B1: anti-GCGR antibody 13G9 (antibody, V domains shown)
VH: QVQLQQSGAELVRPGTSVKISCKASGYTFTNYWLGWVKQRPGHGLEWIGDIYPGGDYNNYNGKFKGKATLTADTSSSTAYIQLSSLTSEDSAVYFCVRSDDGYSWGQGTTLTVSS
VL: DVLMTQTPLSLPVSLGDQASISCRSSQSIVDSYGNTYLEWYQQKPGQSPTLLIYKVSNRFAGVPDRFSGSGSGTDFTLKISRVEAEDLGVYYCFQGSHIPWTFGGGTKVEIK
notes: mouse hybridoma monoclonal antibody; also called 13G19
Turning to B1, the binding result is listed as “binds”.

B2: anti-GCGR antibody 1H2 (antibody, V domains shown)
VH: QVQLQQPGAELVKPGASVKMSCKVSGYTFTSYWITWVKQRPGQGLEWIGDIHPGGGDTNYNKKFKSKATLTVDTSSSTAYMQLSSLTSEDSAVYHCTSDDNYVGFTYWGQGTLVTVSA
VL: B1 VL with S28T, V30I, D31H, Y33D, Q42L, T50I, A61S, I99V, V109L
notes: mouse hybridoma monoclonal antibody
On to B2, for which the binding result is “binds”.

B3: anti-GCGR antibody 6B5 (antibody, V domains shown)
VH: QVQLQQSGTELVRPGTSVKISCKASGFTFTNHWLGWVKQRPGHGLEWIGDIYPGGYYINYNEKFKGKATLTADTSSSTAYMQLSSLTSEDSAVYFCARHTNYGSDYWGQGTTLTVSS
VL: DVLMTQIPLSLPVSLGDQASISCRSSQSIVDSYGNTFLEWYLQKPGQSPKLLIYKVSNRLSGVPDRFSGTGAGTDFTLKISRVEAEDLGIYYCFQGSHVPWTFGGGTKLEIK
notes: mouse hybridoma monoclonal antibody; also called 61B5
Take B3: the binding result is recorded as “binds”.

B4: anti-GCGR antibody 14E9 (antibody, V domains shown)
VH: QVQLQQSGAELVRPGTSVKMSCKAAGYTFTNYWIGWVKQRPGHGLEWIGDISPGNYYTNYNAKFKDKVSLTADTSSSTAYMQLSSLTSEDSAIYYCARYDEFAYWGQGTLVTVSA
VL: B1 VL with P12S, D31H, Y33D, Q42L, T50K, A61S, I99V, V109L
notes: mouse hybridoma monoclonal antibody; also called 13E9
Turning to B4, the binding entry was “binds”.

B5: anti-GCGR antibody 14F4 (antibody, V domains shown)
VH: QVQLQQSGAELVRPGTSVNMSCKATGYTFTNYWIGWVKQRPGHGLEWIGDIFPGGFYSNYNEKFKGKATLTTDTSSSTGYMQLSSLTSEDSAIYYCARIWDRGFDYWGQGTTLTVSS
VL: B3 VL with I7S, F37Y, L60F, T70S, A72S, L88R, I90L, W101Y
notes: mouse hybridoma monoclonal antibody; also called 141F4
With B5, the binding result is given as “binds”.

B6: anti-GCGR antibody 4F8 (antibody, V domains shown)
VH: QVQLQQSGAELVRPGTSVTMSCKAAGYTFSNYWIGWVKQRPGHGLEWIGDIYPGGFYDNYNDKFKGKATLTTDTSSSTAYMQLSSLTSEDSAIYYCTRSGGLPGAGFTYWGQGTLVTVSA
VL: B1 VL with S28H, D31Y, Y33D, Q42L, T50K, A61S, K79E, I99V, V109L
notes: as for B2
Regarding B6, the binding entry is “binds”.

B7: anti-GCGR antibody 1C3 (antibody, V domains shown)
VH: EVQLQQSGPELVKPGASVKMSCKASGYTFTSSVMHWVKQKPGQALEWIGYINPYNDGTKYNENFKGKATLTSDRSSTTAYMELSSLTSEDSAVYYCVTGAGYDRGPMAMDYWGQGTSVTVSS
VL: NIVLTQSPASLAVSLGQRATISCRASESVDSYGDSFVHWYQQKPGQPPKLLIYFASNLESGVPARFSGSGSRTDFTLTIDPVEADDTATYYCQQNNEVPFTFGSGTKLELK
notes: as for B2
For B7, the binding entry is on record as “binds”.

B8: anti-GCGR antibody 1C1 (antibody, V domains shown)
VH: EVQLQQSGPELVKPGATVKMSCKASGYTFTRNVIHWVKQKPGQGLEWIGYINPYNDGAKYNAKFKGKATVTSDKSSSTAYMELSSLTSEDSAVYYCARWGNYEDFAMDYWGQGTSVTVSS
VL: NIVLTQSPPSLAVSLGQRATISCRASESVDIYGNSYMHWYQQKPGQPPKLLIYLASNLESGVPARFSGSGSRTEFSLTIDPVEAGDAATYYCQQNNEDPFTFGGGTKLEIK
notes: as for B2
As for B8, the binding entry is reported as “binds”.

The record behind these values is patent US20240084023A1 (NGM BIOPHARMACEUTICALS, published 2024).
